From PubChem BioAssay AID1508600 (Functional Genomics Laboratory (NCATS/FGL), 2020)
Out of some 53,000 sequences screened, about 3,700 (7%) were called active.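 How the source made its calls: active means gene knockdowns whose robust z-score for IL-1 alpha signal is at least 2 or at most -2, so actives lie on both sides; inactive means the rest.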 The list shows a part of the results.

Assay: Components of the Cytosolic LPS Sensing Pathway: Gene Identification via Genome-wide siRNA Screen
Details: RAW264.7 macrophages, IL-1a HTRF, actives lie on both sides, screened at 100 nM (by protocol), cells primed 5 h with Pam3CSK4 first
Source text: Non-canonical inflammasome activation by cytosolic LPS is a critical component of the host response to Gram-negative bacterial infection, however we lack a comprehensive understanding of the cellular processes that control this pathway. Here we describe a genome-wide siRNA screen to identify genes regulating the mouse macrophage IL-1 alpha response to cytosolic LPS.
RAW264.7 cells were maintained in complete DMEM media, comprising DMEM with 4.5 g/L glucose, 10% FBS (Gemini Bio-Products, West Sacramento, CA), 2 mM Glutamine (Lonza) and 20 mM HEPES (Lonza), hereafter complete DMEM.
The RNAi screen was conducted in 384-well format using the Ambion Silencer Mouse Genome siRNA Library (#4391425), which consists of three unique, nonoverlapping, nonpooled siRNAs for each of 17,000 gene targets. siRNA reagents ([…]) were stamped into 384-well white flat-bottom microplates (Corning, 3570) using a Velocity11 VPrep liquid handling system (Agilent) integrated into a BioCel robotic platform (Agilent) in columns 1-22, leaving columns 23-24 empty for negative (Ambion, Negative control #1) and positive (mouse Casp4) controls, respectively. The median value of each plate's negative control column was used to normalize sample wells, and the positive control was used to assess transfection efficiency and assay performance.
Lipofectamine RNAiMAX Transfection Reagent ([…]; Invitrogen) was added in […] serum-free, antibiotic-free media to plate wells using a Thermo Scientific Matrix WellMate and Microplate Stacker. Plates were incubated for 45 min at room temperature to allow for the sufficient formation of siRNA-lipid complexes. Cells were seeded at a density of 1x10^4 cells per well in 20 microL media containing 20% (vol/vol) FBS without antibiotics. The final concentration of siRNA in each well was 100 nM. Cells were cultured for 48h at 37 degrees C in 5% CO2 before addition of […] of TLR ligand Pam3CSK4 for 5 hours. The medium was then removed, replaced with […] growth media and cell were transfected with […] of LipidA and TransIT-TKO (Mirus) for 24 hour. At the end of the LipidA treatment, […] of supernatant was transferred to a 384 Greiner Bio-one non-binding low volume plate and […] of IL-1a HTRF reagent (Cisbio, 62MIL1APEH) was added and incubated at room temperature overnight. The plates were read on an EnVision plate reader (PerkinElmer). Cell viability was measured by adding 20ul Cell Titer Glo to the original plate and running a luminescence read on the EnVision. The quantified IL-1a signal for each siRNA gene-targeted well was divided by the median of the negative control wells and multiplied by 100 to achieve a negative control normalized value for each well/siRNA. This normalized value was then used to generate a robust z-score by first taking the log of each value and then by subtracting the median and dividing by the […].

Row | Sequence | z-score
1 | GGCCCAGGUGGAUAGUUAUTT against Cep120 | active: 2.03
2 | GGACAACAUCUUCAAAGGATT against Slc12a1 | inactive: 0.617
3 | GGACAAACGGGAAAAGAAGTT against Sprr2d | active: -2.04
4 | GGAGAACUGAAAGACGUGCTT against Vgll1 | inactive: -0.427
5 | GGAAGACCAGCAGUUAAGATT against Grb10 | inactive: -1.56
6 | GGUAAAAUAUAGUUUGCGCTT against Abca14 | inactive: 1.06
7 | CGCAUACAUCAGGUCACUATT against Katnb1 | inactive: -0.74
8 | GGAGAUUCUUCUCAUUGGCTT against Gmppa | inactive: -0.491
9 | GGAAGAACACAAGUGUUUUTT against Trem3 | inactive: -0.626
10 | CCAGUGUAAUCGAGUGUGATT against Atp10a | inactive: 0.909
11 | GCUGGGUGAACUUACAGGATT against Wars2 | inactive: 0.567
12 | GCCCAUGUUUUUUUUUCUGTT against Olfr648 | inactive: 0.776
13 | GGACUCAAAUGUGAUGCAUTT against Prkcq | inactive: -0.718
14 | GGACAUCGCAUGUUUGAAATT against Fam72a | inactive: 0.496
15 | GCUGACCUCAAUGACUACATT against Ccl9 | inactive: -0.17
16 | CCUUUCAAUGACUACGAUUTT against Rnase9 | inactive: -0.425
17 | GGUUCAAGCAGGUCAAAGUTT against Acbd6 | inactive: -1.36
18 | GGCUGACAGUGGAGUCUAUTT against Ceacam9 | inactive: -0.114
19 | GGAUAUGUCAGCAUAUGUGTT against Yeats4 | inactive: -0.583
20 | GCUGACUUCAGUUGUGGCATT against Baz2a | inactive: -1.42
21 | GGGUUGUUCGGAGGAAACATT against Napb | inactive: -0.423
22 | GGAAUGUGAAGAAGAAAUUTT against Dnttip2 | active: 2.03
23 | GGAGUAUGUCAAUUAGCAUTT against Vmn1r229 | inactive: 0.189

Two entries from above, with tabs.
Row	Sequence	z-score
16	CCUUUCAAUGACUACGAUUTT against Rnase9	inactive: -0.425
21	GGGUUGUUCGGAGGAAACATT against Napb	inactive: -0.423

More records

Row | Sequence | z-score
24 | CCUUCAAAUGAACUCUACUTT against Fcer1a | inactive: 0.0774
25 | GGGAAAAACUCUGUGUGUATT against Coasy | inactive: -0.25
26 | GGAUGUUCUACUGCUACACTT against Dtwd1 | inactive: -0.706
27 | GGUACAUAUUACAUUCUUCTT against Cldn12 | inactive: -0.408
28 | GGUGCUAAAUAAGACAAUGTT against Psma4 | inactive: -1.76
29 | CGAAGGGAAGCAAAAUACATT against Bend5 | active: 2.11
30 | CACCGAGUAUAUCUAUAAUTT against Ear14 | inactive: 0.131
31 | CCAUGAUCAAGAUUGUGCUTT against Slc29a1 | inactive: -1.86
32 | GCUAACCAGUGAUCCUACATT against Olfr846 | inactive: 0.471
33 | GCCGGAGUGCACAAUCAAATT against Rarres2 | inactive: 0.908
34 | GCUACUAGAGGAGAUGGACTT against Sart1 | inactive: 0.466
35 | GGACAUGUCUCAGGAAAACTT against Btc | inactive: -0.446
36 | GGCAAUUGCACCAUUGAAUTT against Megf9 | inactive: 0.494
37 | GGAAAACAUACUGCUUUGATT against Abhd17c | inactive: 1.93
38 | GGUUUGAAUCAAAUUGUACTT against Hyou1 | inactive: -1.12
39 | GGAUGCUACAACACUCUACTT against Flrt3 | inactive: 1.53
40 | GCUUAUUUCAAAAAGGGAGTT against Mal2 | inactive: -1.11
41 | CCAAAAGUCCGAUAUGAAATT against Ints9 | inactive: -0.888
42 | GCAAUUCAGGUUUACUACATT against Fgg | inactive: 0.00733
43 | GGCUGAAAUAUGAAAUUGCTT against Cyth3 | inactive: -1.21
44 | GCAUAGUCCUGUGCUUACCTT against Sfmbt2 | inactive: -0.267
45 | GGCCUAAAGGCACAAUCUGTT against Nanos1 | inactive: -0.937
46 | CGAUGGACUUUUCGUUAACTT against Jun | inactive: 1.79

Row | Sequence | z-score
47 | GGAGACUCCUAAGAAGCAGTT against Cc2d1a | inactive: 0.445
48 | CCCAAGAAACUUCGCUUCCTT against Ehmt1 | inactive: -0.551
49 | GGAGCUCAAGAGCUGGGUUTT against Tor2a | inactive: -1.1
50 | GGCCUUUGAACACACUCCATT against G6pc2 | inactive: -1.31
51 | GGUGGUGAUAAGCUUCCUCTT against Olfr1417 | inactive: -1.87
52 | GGACGUGAACAAAAGAAGGTT against Scel | inactive: -0.647
53 | CCCAAAAACGUGACAUCUUTT against Inppl1 | inactive: 0.901
54 | GGCGUAUGUUCGCUUGGCUTT against Rpl23a | inactive: -0.0475
55 | GCAAGAGCAUGCUUACGGUTT against Ccl1 | inactive: -0.324
56 | GCACCUACUGAUUGAACGCTT against S100g | inactive: 1.77
57 | GGUCCAGCAUUUGAAAUUATT against Moap1 | inactive: 0.291
58 | GCCAAGAGCACAUCUGCUATT against Suco | inactive: -1.65
59 | GCCAAUUGAAGGAUAUCUUTT against Ocm | inactive: -0.752
60 | GGUUCUUUGUAUUGAUCAATT against Adamts20 | inactive: 0.632
61 | GGAACACACCUGUUAUGAUTT against Prkag3 | inactive: 0.0533
62 | CGCGUAUAGAACAUUAAUCTT against Cdc14b | inactive: 0.716
63 | CCAGAAUGUAUCCAGGCCUTT against St6galnac4 | inactive: -0.445
64 | CCAUCUAUACCCUGGACGATT against Galr2 | inactive: -0.168
65 | GGAGCUGAUAGGACUGAUGTT against Snap47 | active: 2.16
66 | GCUGGAUGCGACAAUCUGATT against Aqp11 | inactive: 0.913
67 | GGAGCAUUUGUUUCCAAGATT against Cd38 | inactive: -1.33
68 | GGCAUUAACCAUGAGUGUATT against Zfp423 | inactive: -0.861
